The experiment has as its system CD2F1 mice, L1210 leukemia ip, survival T/C. Briefly: NCI In Vivo Anticancer Drug Screen. Data for tumor model L1210 Leukemia (intraperitoneal) in CD2F1 (CDF1) mice. The conditions noted are these: T/C endpoint: mean survival time, higher T/C = longer survival. The procedure, abridged: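 In this screen, transplantable tumors were grown in mice given either the compound or its vehicle. Results were expressed as the treated measurement relative to the control measurement.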

Where [1] appears, read: dose: 400.0 mg/kg/injection, schedule: Q04DX002 (ip), vehicle: saline.

Molecules are shown by their SMILES. The list shows only some results of the screen, not a fair sample: it gathers tests that were run many times, whatever their T/C, doses with no T/C, and many T/C values between a quarter and a half above the control. Other doses and runs of a compound stand elsewhere. T/C gives the treated animals as a percentage of the vehicle group. Some entries give survivors of the animals treated and no T/C: the source holds a T/C of zero for them, seemingly a mark for toxic or unscored doses. Some doses without a T/C left all or most animals alive at the check, yet need not have been tolerated: the source hardly ever lists a survival T/C far under the control, and the zero likely stands for such cases as well. Counts of survivors are from the toxicity check (mostly the fifth day) where no day follows; animals may have died later. Schedule codes are those of the source, taken here to give the interval after Q, in days (D) or hours (H), and the number of doses after X. Some entries hold several experiments; the results are listed from low to high.

For `CCCC(C)CC1CCC(N)CC1` (stereo unspecified), under setting [1], the survivor count is on record as 1 of 3.
Regarding `S=c1nc[nH]c2ccccc12`, the survivor count (dose: 400.0 mg/kg/injection, schedule: Q04DX003 (ip), vehicle: saline with Tween-80) was 3 of 3 and 6 of 6.
On to `CN(C)/C=N\c1ncnc2c1cnn2C1OC(CO)C(O)C1O` (stereo unspecified), for which the survivor count reads like this: (dose: 100.0 mg/kg/injection, schedule: Q01DX005 (ip), vehicle: water) 5 of 6; (dose: 200.0 mg/kg/injection, schedule: Q01DX005 (ip), vehicle: water) 5 of 6; (dose: 400.0 mg/kg/injection, schedule: Q01DX005 (ip), vehicle: water) 5 of 6.
In the case of `NC(=O)NNC(=O)C(Cl)(Cl)Cl`, the survivor count is 2 of 3 (dose: 200.0 mg/kg/injection, schedule: Q04DX002 (ip), vehicle: saline) and 0 of 3 under setting [1].
As for `O=C(CC(Cl)(C(F)(F)F)C(F)(F)F)c1cccc([N+](=O)[O-])c1`, the survivor count reads like this: (dose: 100.0 mg/kg/injection, schedule: Q01DX001 (ip), vehicle: saline with Tween-80) 0 of 6; (dose: 200.0 mg/kg/injection, schedule: Q01DX001 (ip), vehicle: saline with Tween-80) 1 of 6; (dose: 400.0 mg/kg/injection, schedule: Q01DX001 (ip), vehicle: saline with Tween-80) 2 of 6.
On to `CSC(SC)=C(C#N)C#N`, for which the survivor count (dose: 100.0 mg/kg/injection, schedule: Q04DX002 (ip), vehicle: saline) is on record as 3 of 6.

For the origin of these results see PubChem BioAssay AID256 (DTP/NCI, 2004).
